Results taken from the supplement of paper PMC10849652.
The other results are listed elsewhere or left out.

The chains behind the UniProt entries cited, without tags or fusion partners. Where a name states a change or a piece, a line headed by the entry shows the natural chain unless it says otherwise.
UniProt Q5T1V6: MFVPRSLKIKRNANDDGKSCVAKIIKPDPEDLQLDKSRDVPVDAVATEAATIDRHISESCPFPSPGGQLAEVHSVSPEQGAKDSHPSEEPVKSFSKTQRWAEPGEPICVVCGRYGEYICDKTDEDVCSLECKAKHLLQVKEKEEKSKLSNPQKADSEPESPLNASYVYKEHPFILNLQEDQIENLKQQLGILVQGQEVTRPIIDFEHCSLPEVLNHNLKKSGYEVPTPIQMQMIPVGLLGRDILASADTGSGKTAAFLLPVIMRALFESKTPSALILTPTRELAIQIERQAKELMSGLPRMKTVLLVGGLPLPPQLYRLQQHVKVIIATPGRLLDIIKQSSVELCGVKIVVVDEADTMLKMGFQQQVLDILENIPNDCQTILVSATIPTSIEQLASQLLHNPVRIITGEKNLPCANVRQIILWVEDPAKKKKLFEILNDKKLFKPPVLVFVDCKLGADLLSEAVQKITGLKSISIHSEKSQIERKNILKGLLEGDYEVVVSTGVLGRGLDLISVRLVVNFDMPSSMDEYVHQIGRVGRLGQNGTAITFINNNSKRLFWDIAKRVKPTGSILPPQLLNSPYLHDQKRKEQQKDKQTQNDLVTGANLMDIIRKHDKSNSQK
UniProt O43583: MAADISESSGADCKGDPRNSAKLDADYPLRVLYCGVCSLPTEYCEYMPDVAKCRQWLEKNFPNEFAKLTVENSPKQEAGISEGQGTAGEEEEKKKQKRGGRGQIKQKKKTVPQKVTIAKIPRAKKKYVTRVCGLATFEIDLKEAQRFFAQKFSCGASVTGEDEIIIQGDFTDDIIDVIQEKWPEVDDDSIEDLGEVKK
UniProt Q02127: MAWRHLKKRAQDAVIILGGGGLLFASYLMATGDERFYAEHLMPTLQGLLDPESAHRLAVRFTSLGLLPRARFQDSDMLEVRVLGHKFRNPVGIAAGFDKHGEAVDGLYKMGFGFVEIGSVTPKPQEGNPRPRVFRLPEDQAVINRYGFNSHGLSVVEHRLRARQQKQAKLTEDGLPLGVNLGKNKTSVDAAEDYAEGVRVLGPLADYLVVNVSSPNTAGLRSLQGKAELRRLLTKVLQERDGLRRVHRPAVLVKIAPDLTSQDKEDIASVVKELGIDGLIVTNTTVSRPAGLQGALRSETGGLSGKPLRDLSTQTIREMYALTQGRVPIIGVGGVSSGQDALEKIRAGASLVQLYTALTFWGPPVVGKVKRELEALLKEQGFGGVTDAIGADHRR
UniProt Q13268: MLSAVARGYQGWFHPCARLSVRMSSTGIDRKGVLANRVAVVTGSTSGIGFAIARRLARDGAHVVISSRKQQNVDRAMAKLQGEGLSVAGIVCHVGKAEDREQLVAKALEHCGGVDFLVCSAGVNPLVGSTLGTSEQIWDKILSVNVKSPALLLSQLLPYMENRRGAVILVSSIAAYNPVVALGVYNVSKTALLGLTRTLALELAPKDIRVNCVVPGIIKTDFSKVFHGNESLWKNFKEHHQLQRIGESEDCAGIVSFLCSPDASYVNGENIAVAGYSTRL
UniProt Q15398: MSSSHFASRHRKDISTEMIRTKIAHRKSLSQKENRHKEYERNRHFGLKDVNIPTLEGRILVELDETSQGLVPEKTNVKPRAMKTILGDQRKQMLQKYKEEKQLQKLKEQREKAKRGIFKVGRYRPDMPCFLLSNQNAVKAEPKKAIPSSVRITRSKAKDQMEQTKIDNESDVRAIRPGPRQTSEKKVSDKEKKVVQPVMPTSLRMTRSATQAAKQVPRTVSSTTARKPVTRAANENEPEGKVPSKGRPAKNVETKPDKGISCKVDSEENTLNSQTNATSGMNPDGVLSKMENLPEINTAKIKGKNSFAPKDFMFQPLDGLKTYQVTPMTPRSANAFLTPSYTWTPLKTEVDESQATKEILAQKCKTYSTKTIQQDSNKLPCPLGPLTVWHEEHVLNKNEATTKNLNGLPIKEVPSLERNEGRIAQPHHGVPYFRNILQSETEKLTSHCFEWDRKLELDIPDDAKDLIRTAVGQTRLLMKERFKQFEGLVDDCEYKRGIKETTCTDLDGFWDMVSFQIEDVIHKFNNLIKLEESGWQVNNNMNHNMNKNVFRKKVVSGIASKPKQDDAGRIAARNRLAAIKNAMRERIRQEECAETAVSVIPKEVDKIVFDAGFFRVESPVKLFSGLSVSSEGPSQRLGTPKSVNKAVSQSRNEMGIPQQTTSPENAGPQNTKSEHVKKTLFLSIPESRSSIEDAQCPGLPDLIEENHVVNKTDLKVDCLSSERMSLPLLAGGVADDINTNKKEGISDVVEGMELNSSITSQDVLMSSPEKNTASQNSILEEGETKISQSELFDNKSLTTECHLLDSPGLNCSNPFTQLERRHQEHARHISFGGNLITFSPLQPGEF
UniProt Q7Z478: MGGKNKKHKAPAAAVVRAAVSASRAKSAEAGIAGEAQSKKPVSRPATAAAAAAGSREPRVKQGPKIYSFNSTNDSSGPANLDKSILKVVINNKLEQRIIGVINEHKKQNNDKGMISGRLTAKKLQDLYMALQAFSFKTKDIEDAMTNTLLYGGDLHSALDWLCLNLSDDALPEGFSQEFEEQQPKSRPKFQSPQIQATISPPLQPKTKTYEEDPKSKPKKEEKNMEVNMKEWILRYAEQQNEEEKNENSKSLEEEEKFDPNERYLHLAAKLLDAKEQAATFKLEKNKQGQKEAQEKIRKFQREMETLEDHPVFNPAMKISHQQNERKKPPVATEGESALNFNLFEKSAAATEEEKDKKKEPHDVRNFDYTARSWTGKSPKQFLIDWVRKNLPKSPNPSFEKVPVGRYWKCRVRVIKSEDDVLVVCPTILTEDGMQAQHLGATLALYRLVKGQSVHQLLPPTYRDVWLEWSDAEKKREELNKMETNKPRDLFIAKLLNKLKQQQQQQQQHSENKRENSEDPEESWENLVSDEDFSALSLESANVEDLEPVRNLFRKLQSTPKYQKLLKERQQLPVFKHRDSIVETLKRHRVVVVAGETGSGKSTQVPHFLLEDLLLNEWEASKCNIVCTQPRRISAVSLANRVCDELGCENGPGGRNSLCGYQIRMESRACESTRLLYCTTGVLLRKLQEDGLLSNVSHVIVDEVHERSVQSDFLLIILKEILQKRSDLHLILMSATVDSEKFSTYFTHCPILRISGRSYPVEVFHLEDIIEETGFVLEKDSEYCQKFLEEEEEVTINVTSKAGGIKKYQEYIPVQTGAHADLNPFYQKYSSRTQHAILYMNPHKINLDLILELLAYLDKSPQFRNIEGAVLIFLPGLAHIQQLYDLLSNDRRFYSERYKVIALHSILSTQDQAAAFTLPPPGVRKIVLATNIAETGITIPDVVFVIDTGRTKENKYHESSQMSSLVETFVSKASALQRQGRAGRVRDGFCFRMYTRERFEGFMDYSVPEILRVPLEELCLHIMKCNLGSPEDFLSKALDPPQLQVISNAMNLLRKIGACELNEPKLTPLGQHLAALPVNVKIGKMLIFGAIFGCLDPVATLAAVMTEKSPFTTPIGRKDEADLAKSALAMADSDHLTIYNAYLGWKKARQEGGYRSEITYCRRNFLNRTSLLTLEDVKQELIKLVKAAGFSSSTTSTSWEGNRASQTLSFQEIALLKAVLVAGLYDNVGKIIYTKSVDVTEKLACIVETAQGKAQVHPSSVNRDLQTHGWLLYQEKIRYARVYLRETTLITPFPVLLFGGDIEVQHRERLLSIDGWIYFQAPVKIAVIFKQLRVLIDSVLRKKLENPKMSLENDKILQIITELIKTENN
UniProt P26196: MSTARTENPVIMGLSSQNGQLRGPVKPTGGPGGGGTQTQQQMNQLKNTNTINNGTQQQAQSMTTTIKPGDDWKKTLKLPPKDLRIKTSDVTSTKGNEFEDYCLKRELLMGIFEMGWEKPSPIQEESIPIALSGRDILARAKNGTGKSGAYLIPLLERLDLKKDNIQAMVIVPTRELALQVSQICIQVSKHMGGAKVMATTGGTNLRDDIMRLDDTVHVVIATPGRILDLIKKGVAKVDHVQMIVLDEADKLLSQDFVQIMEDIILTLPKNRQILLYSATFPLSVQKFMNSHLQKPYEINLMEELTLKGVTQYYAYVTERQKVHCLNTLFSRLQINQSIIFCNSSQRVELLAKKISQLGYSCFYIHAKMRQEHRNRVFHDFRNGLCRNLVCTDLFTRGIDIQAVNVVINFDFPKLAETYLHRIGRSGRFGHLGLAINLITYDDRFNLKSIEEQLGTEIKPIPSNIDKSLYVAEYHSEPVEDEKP
UniProt Q92841: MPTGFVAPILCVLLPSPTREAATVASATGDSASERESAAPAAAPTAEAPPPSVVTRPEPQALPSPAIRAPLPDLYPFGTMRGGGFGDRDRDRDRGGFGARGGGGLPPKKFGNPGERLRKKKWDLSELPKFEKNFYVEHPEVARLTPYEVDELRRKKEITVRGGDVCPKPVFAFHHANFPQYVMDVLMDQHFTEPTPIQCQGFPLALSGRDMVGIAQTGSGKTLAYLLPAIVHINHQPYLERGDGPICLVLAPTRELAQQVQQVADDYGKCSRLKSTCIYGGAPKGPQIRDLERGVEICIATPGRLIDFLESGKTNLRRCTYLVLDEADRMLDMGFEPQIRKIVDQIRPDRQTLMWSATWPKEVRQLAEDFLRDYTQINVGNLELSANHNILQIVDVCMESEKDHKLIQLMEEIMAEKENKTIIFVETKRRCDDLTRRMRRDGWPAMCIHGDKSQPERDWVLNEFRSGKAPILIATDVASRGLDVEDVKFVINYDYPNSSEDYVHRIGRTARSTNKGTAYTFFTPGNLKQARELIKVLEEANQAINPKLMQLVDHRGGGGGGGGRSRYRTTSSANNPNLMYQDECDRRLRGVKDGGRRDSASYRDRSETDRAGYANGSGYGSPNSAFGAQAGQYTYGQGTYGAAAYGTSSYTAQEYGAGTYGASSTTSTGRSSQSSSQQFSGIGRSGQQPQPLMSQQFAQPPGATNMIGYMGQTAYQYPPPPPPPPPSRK
UniProt Q9Y315: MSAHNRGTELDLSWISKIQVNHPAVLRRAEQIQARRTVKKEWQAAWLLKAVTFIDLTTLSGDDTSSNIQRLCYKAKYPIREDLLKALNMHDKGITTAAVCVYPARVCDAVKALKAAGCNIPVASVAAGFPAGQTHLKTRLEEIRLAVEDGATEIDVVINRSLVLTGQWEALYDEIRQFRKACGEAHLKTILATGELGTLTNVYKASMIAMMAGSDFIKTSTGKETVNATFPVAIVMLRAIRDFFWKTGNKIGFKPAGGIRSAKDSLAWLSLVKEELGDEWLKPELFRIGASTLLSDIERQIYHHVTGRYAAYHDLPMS
UniProt Q9NR30: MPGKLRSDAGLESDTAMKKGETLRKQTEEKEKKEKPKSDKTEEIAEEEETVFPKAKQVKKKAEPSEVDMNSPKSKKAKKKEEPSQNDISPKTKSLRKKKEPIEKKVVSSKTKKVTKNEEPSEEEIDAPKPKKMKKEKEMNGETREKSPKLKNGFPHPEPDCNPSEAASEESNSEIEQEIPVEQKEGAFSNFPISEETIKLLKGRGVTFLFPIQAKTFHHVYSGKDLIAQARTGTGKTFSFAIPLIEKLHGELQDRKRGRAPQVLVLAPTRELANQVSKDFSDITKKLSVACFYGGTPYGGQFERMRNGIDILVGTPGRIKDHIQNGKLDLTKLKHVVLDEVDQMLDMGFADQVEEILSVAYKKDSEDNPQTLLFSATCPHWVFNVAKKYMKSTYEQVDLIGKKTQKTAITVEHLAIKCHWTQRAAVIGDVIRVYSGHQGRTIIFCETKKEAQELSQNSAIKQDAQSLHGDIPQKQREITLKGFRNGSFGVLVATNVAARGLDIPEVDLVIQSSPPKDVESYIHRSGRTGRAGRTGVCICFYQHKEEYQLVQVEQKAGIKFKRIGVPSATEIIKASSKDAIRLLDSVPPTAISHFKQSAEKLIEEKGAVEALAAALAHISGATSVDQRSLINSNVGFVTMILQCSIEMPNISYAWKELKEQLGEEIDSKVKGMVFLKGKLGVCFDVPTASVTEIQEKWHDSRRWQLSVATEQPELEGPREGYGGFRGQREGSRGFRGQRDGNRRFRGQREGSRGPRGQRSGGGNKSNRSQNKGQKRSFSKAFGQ
UniProt Q9Y6V7: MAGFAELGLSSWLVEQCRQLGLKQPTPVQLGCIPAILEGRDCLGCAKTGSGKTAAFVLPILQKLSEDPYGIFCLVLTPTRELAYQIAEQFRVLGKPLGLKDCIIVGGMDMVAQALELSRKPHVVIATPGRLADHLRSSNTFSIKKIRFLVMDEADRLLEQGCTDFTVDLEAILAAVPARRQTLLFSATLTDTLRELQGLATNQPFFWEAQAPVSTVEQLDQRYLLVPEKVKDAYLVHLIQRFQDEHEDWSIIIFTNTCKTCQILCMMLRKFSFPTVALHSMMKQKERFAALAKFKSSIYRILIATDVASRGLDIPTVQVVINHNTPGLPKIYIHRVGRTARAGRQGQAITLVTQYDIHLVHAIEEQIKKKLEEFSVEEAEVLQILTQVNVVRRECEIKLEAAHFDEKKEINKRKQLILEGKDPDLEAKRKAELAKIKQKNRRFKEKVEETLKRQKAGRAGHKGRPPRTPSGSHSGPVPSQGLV

Tests used:
Test in all cases: log2 fold change, soluble protein after heating vs DMSO (PISA); higher = thermal stabilisation; K562 cells, 10 uM, 30 min; active = over 0.2 and 3.5 SD of the protein, either way, in both replicates (recomputed)
[1] = compound: CS(=O)(=O)c1ccc(-c2cnc(N)c(C(=O)Nc3ccccc3)n2)cc1
Outline: (§1)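 K562 cells at 2×10^6 cells/mL were treated with 10 μM compound for 30 min. Aliquots were heated for 3 min across 48°C-58°C, pooled, and extracted in PBS with 0.5% NP-40 at 4°C; soluble protein was the supernatant after 21,000xg for 90 min. Soluble protein was quantified by TMTpro 16plex LC-MS/MS with channel sums equalised, and reported as log2 fold change in thermal stability against DMSO controls, with values from duplicates.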

crizotinib = compound: C[C@@H](Oc1cc(-c2cnn(C3CCNCC3)c2)cnc1N)c1c(Cl)ccc(F)c1Cl [crizotinib]
Outline: as §1

[2] = compound: C[C@@H]1COCCN1C2=NC(=NC(=C2)C3(CC3)S(=O)(=O)C)C4=C5C=CNC5=CC=C4
Outline: as §1

[3] = compound: C[C@H](C1=CC=C(C=C1)C(=O)NC2=C3C=CNC3=NC=C2)N
Outline: as §1

duvelisib = compound: C[C@H](Nc1ncnc2nc[nH]c12)c1cc2cccc(Cl)c2c(=O)n1-c1ccccc1 [duvelisib]
Outline: as §1

gandotinib = compound: Cc1cc(Nc2cc(CN3CCOCC3)c3nc(C)c(Cc4ccc(Cl)cc4F)n3n2)n[nH]1 [gandotinib]
Outline: as §1

tozasertib = compound: Cc1cc(Nc2cc(N3CCN(C)CC3)nc(Sc3ccc(NC(=O)C4CC4)cc3)n2)n[nH]1 [tozasertib]
Outline: as §1

[4] = compound: Cc1cc(SCc2sc(-c3ccc(C(F)(F)F)cc3)nc2C)ccc1OCC(=O)O
Outline: as §1

doramapimod = compound: Cc1ccc(-n2nc(C(C)(C)C)cc2NC(=O)Nc2ccc(OCCN3CCOCC3)c3ccccc23)cc1 [doramapimod]
Outline: as §1

ispinesib = compound: Cc1ccc(C(=O)N(CCCN)[C@@H](c2nc3cc(Cl)ccc3c(=O)n2Cc2ccccc2)C(C)C)cc1 [ispinesib]
Outline: as §1

[5] = compound: Cc1cccc(CC(=O)N2CCc3c2ccc(-c2cn(C)c4ncnc(N)c24)c3F)n1
Outline: as §1

dasatinib = compound: Cc1nc(Nc2ncc(C(=O)Nc3c(C)cccc3Cl)s2)cc(N2CCN(CCO)CC2)n1 [dasatinib]
Outline: as §1

[6] = compound: Cn1cc(-c2ccc3c(c2)CCN3C(=O)Cc2cccc(C(F)(F)F)c2)c2c(N)ncnc21
Outline: as §1

[7] = compound: Cn1cc(-c2ccc3nnc(C(F)(F)c4ccc5ncccc5c4)n3n2)cn1
Outline: as §1

tipifarnib = compound: Cn1cncc1[C@@](N)(c1ccc(Cl)cc1)c1ccc2c(c1)c(-c1cccc(Cl)c1)cc(=O)n2C [tipifarnib]
Outline: as §1

mubritinib = compound: FC(F)(F)c1ccc(/C=C/c2nc(COc3ccc(CCCCn4ccnn4)cc3)co2)cc1 [mubritinib]
Outline: as §1

bafetinib = compound: Cc1ccc(NC(=O)c2ccc(CN3CC[C@H](N(C)C)C3)c(C(F)(F)F)c2)cc1Nc1nccc(-c2cncnc2)n1 [bafetinib]
Outline: as §1

nilotinib = compound: Cc1cn(-c2cc(NC(=O)c3ccc(C)c(Nc4nccc(-c5cccnc5)n4)c3)cc(C(F)(F)F)c2)cn1 [nilotinib]
Outline: as §1

[8] = compound: Cc1nc(Nc2n[nH]c3c2CN(C(=O)N[C@H](CN(C)C)c2ccccc2)C3(C)C)c2sccc2n1
Outline: as §1

[9] = compound: Cc1ncc(-c2ccnc(Nc3ccc(S(C)(=O)=O)cc3)n2)n1C(C)C
Outline: as §1

Measured: log2 fold change

DIDO1 (UniProt Q9BTC0)
inactive: [1] 0.052 | crizotinib -0.159 | [2] 0.046 | [3] 0.093 | duvelisib -0.089 | gandotinib -0.119 | tozasertib 0.129 | [4] 0.088 | doramapimod 0.006 | ispinesib -0.301 | [5] 0.002 | dasatinib -0.135 | [6] 0.017 | [7] -0.028 | tipifarnib 0.257 | mubritinib 0.074

DLAT (UniProt P10515)
inactive: [1] 0.054 | crizotinib 0.02 | [2] -0.335 | [3] 0.267 | duvelisib -0.18 | gandotinib 0.088 | tozasertib 0.141 | [4] 0.119 | doramapimod 0.146 | ispinesib -0.118 | bafetinib 0.232 | [5] 0.026 | nilotinib -0.037 | [8] 0.151 | dasatinib 0.054 | [9] -0.064 | [6] -0.257 | [7] -0.06 | tipifarnib 0.227 | mubritinib -0.261

DDX59 (UniProt Q5T1V6)
inactive: [1] 0.057 | crizotinib 0.043 | [2] 0.008 | [3] -0.031 | duvelisib 0.126 | gandotinib 0.009 | tozasertib 0.017 | [4] 0.06 | doramapimod 0.031 | ispinesib 0.008 | bafetinib -0.034 | [5] -0.099 | nilotinib 0.04 | [8] -0.044 | dasatinib -0.112 | [9] 0.017 | [6] -0.037 | [7] 0 | tipifarnib -0.059 | mubritinib 0.144

DMAC2 isoform 4 (UniProt Q9NW81)
inactive: [1] 0.08 | crizotinib 0.01 | [2] -0.046 | [3] 0 | duvelisib 0.024 | gandotinib -0.128 | tozasertib 0.086 | [4] 0.035 | doramapimod -0.043 | ispinesib -0.144 | bafetinib -0.027 | [5] 0.02 | nilotinib -0.029 | [8] 0.056 | dasatinib -0.079 | [9] -0.006 | [6] 0.058 | [7] 0.112 | tipifarnib -0.111 | mubritinib 0.002

DENR (UniProt O43583)
inactive: [1] 0.007 | crizotinib 0.036 | [2] 0.019 | [3] -0.027 | duvelisib -0.004 | gandotinib 0.011 | tozasertib -0.018 | [4] -0.042 | doramapimod -0.05 | ispinesib 0.031 | bafetinib -0.024 | [5] -0.039 | nilotinib 0.044 | [8] -0.005 | dasatinib 0.072 | [9] -0.025 | [6] -0.019 | [7] 0.023 | tipifarnib 0.074 | mubritinib 0.02

DHODH (UniProt Q02127)
inactive: [1] 0.021 | crizotinib 0.023 | [2] 0.027 | [3] -0.018 | duvelisib 0.007 | gandotinib 0.063 | tozasertib 0.037 | [4] -0.074 | doramapimod -0.017 | ispinesib 0.014 | bafetinib -0.042 | [5] -0.049 | nilotinib 0.003 | [8] -0.002 | dasatinib 0.031 | [9] -0.036 | [6] 0.026 | [7] -0.022 | tipifarnib 0.046 | mubritinib 0.035

Pulled one by one from the entries so far, two records:
DMAC2 isoform 4 (UniProt Q9NW81)
inactive: [1] 0.08 | crizotinib 0.01 | [2] -0.046 | [3] 0 | duvelisib 0.024 | gandotinib -0.128 | tozasertib 0.086 | [4] 0.035 | doramapimod -0.043 | ispinesib -0.144 | bafetinib -0.027 | [5] 0.02 | nilotinib -0.029 | [8] 0.056 | dasatinib -0.079 | [9] -0.006 | [6] 0.058 | [7] 0.112 | tipifarnib -0.111 | mubritinib 0.002

DIDO1 (UniProt Q9BTC0)
inactive: [1] 0.052 | crizotinib -0.159 | [2] 0.046 | [3] 0.093 | duvelisib -0.089 | gandotinib -0.119 | tozasertib 0.129 | [4] 0.088 | doramapimod 0.006 | ispinesib -0.301 | [5] 0.002 | dasatinib -0.135 | [6] 0.017 | [7] -0.028 | tipifarnib 0.257 | mubritinib 0.074

More results follow.

DHRS2 (UniProt Q13268)
inactive: [1] 0.068 | crizotinib 0.038 | [2] 0.037 | [3] 0.006 | duvelisib 0.047 | gandotinib -0.059 | tozasertib -0.016 | [4] 0.03 | doramapimod 0.029 | ispinesib 0.101 | bafetinib -0.138 | [5] 0.004 | nilotinib -0.03 | [8] 0 | dasatinib -0.069 | [9] -0.057 | [6] 0.002 | [7] -0.007 | tipifarnib -0.001 | mubritinib -0.052

DLGAP5 (UniProt Q15398)
inactive: [1] 0.016 | crizotinib -0.011 | [2] 0 | [3] 0.087 | duvelisib 0.083 | gandotinib 0.037 | tozasertib 0.043 | [4] 0.125 | doramapimod 0.03 | ispinesib -0.092 | bafetinib -0.043 | [5] 0.066 | nilotinib -0.076 | [8] -0.164 | dasatinib -0.169 | [9] -0.038 | [6] 0.034 | [7] -0.003 | tipifarnib -0.038 | mubritinib 0.105

DHX29 (UniProt Q7Z478)
inactive: [1] -0.076 | crizotinib -0.029 | [2] -0.284 | [3] 0.145 | duvelisib -0.053 | gandotinib -0.062 | tozasertib -0.023 | [4] 0.03 | doramapimod 0.084 | ispinesib -0.133 | bafetinib 0.092 | [5] 0.059 | nilotinib 0.02 | [8] -0.013 | dasatinib 0.003 | [9] 0.08 | [6] -0.092 | [7] -0.154 | tipifarnib 0.037 | mubritinib -0.007

DDX6 (UniProt P26196)
inactive: [1] 0.055 | crizotinib -0.035 | [2] -0.076 | [3] 0.017 | duvelisib -0.023 | gandotinib 0 | tozasertib -0.003 | [4] 0.051 | doramapimod 0.014 | ispinesib -0.011 | bafetinib 0.056 | [5] 0.017 | nilotinib 0.004 | [8] 0.022 | dasatinib -0.071 | [9] -0.016 | [6] -0.001 | [7] -0.035 | tipifarnib -0.041 | mubritinib 0.026

DDX17 (UniProt Q92841)
inactive: [1] 0.035 | crizotinib -0.065 | [2] 0.056 | [3] 0.046 | duvelisib 0.013 | gandotinib 0.005 | tozasertib -0.034 | [4] 0.1 | doramapimod -0.037 | ispinesib 0.001 | bafetinib 0.11 | [5] 0.034 | nilotinib 0.067 | [8] 0.01 | dasatinib -0.057 | [9] -0.002 | [6] 0.001 | [7] -0.002 | tipifarnib -0.04 | mubritinib 0.171

DHX9 (UniProt Q08211)
inactive: [1] -0.079 | crizotinib -0.054 | [2] -0.289 | [3] 0.21 | duvelisib -0.088 | gandotinib 0.061 | tozasertib 0.062 | [4] 0.037 | doramapimod 0.074 | ispinesib 0.019 | bafetinib 0.102 | [5] 0.007 | nilotinib -0.072 | [8] 0.098 | dasatinib 0.145 | [9] 0.28 | [6] -0.295 | [7] -0.12 | tipifarnib 0.058 | mubritinib -0.13

DERA (UniProt Q9Y315)
inactive: [1] -0.001 | crizotinib 0.05 | [2] 0.052 | [3] 0.009 | duvelisib 0.041 | gandotinib 0.049 | tozasertib -0.06 | [4] -0.025 | doramapimod 0.007 | ispinesib 0.03 | bafetinib -0.028 | [5] 0.005 | nilotinib -0.007 | [8] 0.026 | dasatinib -0.02 | [9] 0.013 | [6] 0.05 | [7] 0.003 | tipifarnib -0.005 | mubritinib 0.019

DDX21 (UniProt Q9NR30)
inactive: [1] -0.025 | crizotinib -0.114 | [2] -0.043 | [3] 0.381 | duvelisib -0.087 | gandotinib 0.001 | tozasertib -0.05 | [4] -0.01 | doramapimod 0.152 | ispinesib -0.181 | bafetinib 0.042 | [5] -0.03 | nilotinib 0.04 | [8] -0.013 | dasatinib 0.139 | [9] 0.096 | [6] -0.233 | [7] -0.074 | tipifarnib 0.174 | mubritinib -0.071

DDX49 (UniProt Q9Y6V7)
inactive: [1] 0.033 | crizotinib -0.059 | [2] -0.134 | [3] 0.157 | duvelisib -0.092 | gandotinib 0.055 | tozasertib -0.122 | [4] 0.002 | doramapimod 0.086 | ispinesib 0.017 | bafetinib 0.267 | [5] -0.038 | nilotinib 0.135 | [8] 0.106 | dasatinib 0.063 | [9] 0.008 | [6] -0.054 | [7] -0.08 | tipifarnib 0.035 | mubritinib 0.091
